Measurements from article PMC6226434.
No constants are given. Whether binding was seen depends on the method and setting. In cells and extracts the contact can be indirect. Binding calls can cover weak binding; strength is not graded here.

Chains of the proteins cited; added tags and fusions are not shown. Lines headed by an entry give the natural chain unless they say otherwise; changes in a name come on top.
UniProt P24530: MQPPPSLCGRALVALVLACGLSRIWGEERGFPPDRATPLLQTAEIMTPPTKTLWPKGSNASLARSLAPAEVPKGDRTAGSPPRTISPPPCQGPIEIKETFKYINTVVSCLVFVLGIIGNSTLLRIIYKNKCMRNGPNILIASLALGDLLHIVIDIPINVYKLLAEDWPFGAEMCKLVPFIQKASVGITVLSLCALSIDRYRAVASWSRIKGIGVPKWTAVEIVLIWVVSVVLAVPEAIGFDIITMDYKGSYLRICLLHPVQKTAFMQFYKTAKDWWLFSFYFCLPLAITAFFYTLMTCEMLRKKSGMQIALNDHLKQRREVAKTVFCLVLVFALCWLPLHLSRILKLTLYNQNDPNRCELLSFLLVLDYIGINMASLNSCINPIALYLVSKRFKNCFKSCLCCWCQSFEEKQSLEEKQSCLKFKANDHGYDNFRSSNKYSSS
UniProt P49407: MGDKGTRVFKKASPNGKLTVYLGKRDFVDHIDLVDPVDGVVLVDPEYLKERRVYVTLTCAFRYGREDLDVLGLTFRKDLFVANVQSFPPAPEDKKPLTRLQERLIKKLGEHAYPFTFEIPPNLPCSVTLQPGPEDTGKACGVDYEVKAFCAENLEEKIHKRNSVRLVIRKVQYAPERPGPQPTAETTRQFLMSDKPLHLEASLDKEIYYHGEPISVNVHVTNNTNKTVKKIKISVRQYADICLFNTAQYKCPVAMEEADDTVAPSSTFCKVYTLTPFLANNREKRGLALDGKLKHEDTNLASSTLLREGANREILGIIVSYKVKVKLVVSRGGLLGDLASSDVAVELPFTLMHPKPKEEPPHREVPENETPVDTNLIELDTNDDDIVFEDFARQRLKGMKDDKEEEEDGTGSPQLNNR

Biological target: ETB-Y5 with SmBiT at the C-terminus (thermostabilized human ETB receptor) (human) (UniProt P24530)
Test: split reporter; NanoBiT β-arrestin recruitment: ETR-SmBiT and LgBiT-βarr1 co-expressed in HEK293A cells; luminescence after addition of ET-1, ET-3 or IRL1620, room temperature, fold change over 5-10 min

- binding: binds
Substance: internalization-defective LgBiT-beta-arrestin1 (R393E, R395E) (from UniProt P49407 1-418)
